# Hit rate of the full screen: of about 300,000 compounds, about 3,700 (1.2%) were called active. Inconclusive means that the source gave no clear call. Such entries were picked first, then a sample of the others. The call rests on the fitted dose curve; tested in HEK293 cells. Potencies of inconclusive entries are doubtful fits and often do not repeat.
# Assay: qHTS for Inhibitors of binding or entry into cells for Lassa Virus; further: nearly all actives have a fitted effect of over 50% in size
# Conditions: Lassa virus pseudotype entry inhibition, cell reporter; activity change, negative = inhibition: at 37.9 µM (top of the series) unless noted
# On the % scale 0 is the no-effect control and ±100 the full control effect; potency means the concentration at half of the fitted maximal effect.
SMILES,Potency,"activity change, negative = inhibition"
C=CCN(CC=C)S(=O)(=O)c1ccc2nc(NC(=O)C(C)C)sc2c1,"inconclusive: 3.55 µM [inhibitor, partial curve, poor fit]",
O=C(O)CCCNc1cc(N2CCN(C3CCCCC3)CC2)c2noc3c2c1C(=O)c1ccccc1-3,"inconclusive: 3.16 µM [inhibitor, single point]",
C/C(=N\NC(=O)c1ccccc1NC(=O)c1ccc(Cl)cc1)c1ccncc1,"inconclusive: 1.12 µM [inhibitor, full curve, poor fit]",
NS(=O)(=O)c1cccc(NC(=O)CSc2nc3ccccc3n2-c2ccccc2)c1,"inconclusive: 20 µM [inhibitor, partial curve, poor fit]",
Cc1cc(C)cc(Oc2coc3cc(OCC(=O)NC4CCCCC4)ccc3c2=O)c1,,inactive: 3.69% [at 46.1 µM]
Cc1ccc(CNC(=O)C2CCN(S(=O)(=O)c3cccs3)CC2)cc1,,inactive: -5.08%
Cc1cc2ccccc2n1CCNC(=O)c1ccccc1,active: 7.94 µM,
COc1cccc(CC(=O)Nc2ccc3c(c2)CCC3)c1,"inconclusive: 20 µM [inhibitor, single point]",
O=C(NC(=S)N1CCN(c2ccc(Cl)cc2[N+](=O)[O-])CC1)c1cccs1,"inconclusive: 3.16 µM [inhibitor, partial curve, poor fit]",
O=C(Nc1ccc(N2CCCCC2)cc1)c1cccnc1Cl,"inconclusive: 0.708 µM [activator, full curve]",
COc1ccc(CNC(=O)c2csc(Cc3ccc(Cl)cc3)n2)cc1,"inconclusive: 3.98 µM [inhibitor, partial curve, poor fit]",
CC(C(=O)Nc1ccc(C#N)cc1)N(C)CC(=O)Nc1ccccc1Br (centres undefined),"inconclusive: 11.2 µM [inhibitor, partial curve, poor fit]",
COc1cccc(NC(=O)Nc2cc(C)ccc2OC)c1,,inactive: 2.99% [at 46.1 µM]
O=C(NCc1ccc(F)cc1)C(c1ccccc1)N(C(=O)c1csnn1)C1CC1 (centres undefined),"inconclusive: 20.6 µM [inhibitor, partial curve, poor fit]",
CC(c1ccco1)N(C(=O)C12CC3CC(CC(C)(C3)C1)C2)c1ccccn1 (centres undefined),active: 11.2 µM,
Cc1ccc(C(=O)NCCc2nnc3ccc(SCC(=O)Nc4c(C)cc(C)cc4C)nn23)cc1,,inactive: 7.01%
O=C(NCc1cn2ccccc2n1)c1ccccc1,"inconclusive: 35.5 µM [activator, single point]",
CCOC(=O)c1ccccc1NC(=O)CSc1nc(=O)[nH]c2c1CCC2,,inactive: 3.28% [at 46.1 µM]
O=C(CC(C(=O)O)c1ccc(Cl)cc1)c1ccc(Cl)c(Cl)c1 (centres undefined),,inactive: 8.1%

# Part of the list above, as tab-separated lines.
SMILES	Potency	activity change, negative = inhibition
O=C(NCc1ccc(F)cc1)C(c1ccccc1)N(C(=O)c1csnn1)C1CC1 (centres undefined)	inconclusive: 20.6 µM [inhibitor, partial curve, poor fit]	
CC(c1ccco1)N(C(=O)C12CC3CC(CC(C)(C3)C1)C2)c1ccccn1 (centres undefined)	active: 11.2 µM	
Cc1ccc(C(=O)NCCc2nnc3ccc(SCC(=O)Nc4c(C)cc(C)cc4C)nn23)cc1		inactive: 7.01%
O=C(NCc1cn2ccccc2n1)c1ccccc1	inconclusive: 35.5 µM [activator, single point]	

# Source: PubChem BioAssay AID540256 (National Center for Advancing Translational Sciences (NCATS), 2011)
